Laboratory results taken from publication PMC10288633.
Results are given in words; binding and its absence hold for the method and conditions named. In cells and extracts the contact can be indirect. Some binding calls cover weakened binding; strength is not graded here.

Protein sequences, listed by entry. Tags and fused reporters are not part of them.
UniProt Q9UBB5: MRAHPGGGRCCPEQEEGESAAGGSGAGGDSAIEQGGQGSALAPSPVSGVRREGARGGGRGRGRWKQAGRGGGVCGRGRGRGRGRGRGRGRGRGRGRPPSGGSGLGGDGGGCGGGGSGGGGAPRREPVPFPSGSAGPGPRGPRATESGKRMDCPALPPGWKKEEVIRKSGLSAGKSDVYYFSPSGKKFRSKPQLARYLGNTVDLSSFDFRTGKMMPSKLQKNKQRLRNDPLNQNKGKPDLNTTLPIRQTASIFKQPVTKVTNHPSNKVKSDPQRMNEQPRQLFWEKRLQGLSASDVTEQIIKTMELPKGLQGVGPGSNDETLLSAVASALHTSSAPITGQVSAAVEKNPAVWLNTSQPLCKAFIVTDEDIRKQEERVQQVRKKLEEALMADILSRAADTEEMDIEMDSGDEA
UniProt Q9H165: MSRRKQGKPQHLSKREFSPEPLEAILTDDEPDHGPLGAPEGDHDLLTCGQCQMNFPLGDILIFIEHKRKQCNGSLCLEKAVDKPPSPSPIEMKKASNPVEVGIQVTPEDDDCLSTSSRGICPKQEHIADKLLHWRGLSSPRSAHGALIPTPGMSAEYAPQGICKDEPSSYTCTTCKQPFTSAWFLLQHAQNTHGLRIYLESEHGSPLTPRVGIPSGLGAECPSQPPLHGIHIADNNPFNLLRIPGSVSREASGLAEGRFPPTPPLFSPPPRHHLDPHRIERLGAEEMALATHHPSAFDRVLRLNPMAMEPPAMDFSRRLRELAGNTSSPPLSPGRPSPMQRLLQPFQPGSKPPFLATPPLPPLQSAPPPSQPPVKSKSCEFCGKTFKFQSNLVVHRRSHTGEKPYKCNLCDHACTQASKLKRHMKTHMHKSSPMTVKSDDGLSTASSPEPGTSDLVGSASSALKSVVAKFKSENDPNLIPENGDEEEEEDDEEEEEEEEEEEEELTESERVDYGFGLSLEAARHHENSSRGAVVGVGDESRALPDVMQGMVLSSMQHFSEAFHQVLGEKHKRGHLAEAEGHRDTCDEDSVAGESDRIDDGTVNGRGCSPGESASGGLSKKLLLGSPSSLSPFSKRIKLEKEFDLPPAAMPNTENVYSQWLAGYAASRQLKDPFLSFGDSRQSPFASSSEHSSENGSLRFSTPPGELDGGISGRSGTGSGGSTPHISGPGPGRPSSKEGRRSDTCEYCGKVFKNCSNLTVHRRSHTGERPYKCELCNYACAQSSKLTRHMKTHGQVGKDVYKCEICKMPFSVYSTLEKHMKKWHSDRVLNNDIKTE
UniProt O14744: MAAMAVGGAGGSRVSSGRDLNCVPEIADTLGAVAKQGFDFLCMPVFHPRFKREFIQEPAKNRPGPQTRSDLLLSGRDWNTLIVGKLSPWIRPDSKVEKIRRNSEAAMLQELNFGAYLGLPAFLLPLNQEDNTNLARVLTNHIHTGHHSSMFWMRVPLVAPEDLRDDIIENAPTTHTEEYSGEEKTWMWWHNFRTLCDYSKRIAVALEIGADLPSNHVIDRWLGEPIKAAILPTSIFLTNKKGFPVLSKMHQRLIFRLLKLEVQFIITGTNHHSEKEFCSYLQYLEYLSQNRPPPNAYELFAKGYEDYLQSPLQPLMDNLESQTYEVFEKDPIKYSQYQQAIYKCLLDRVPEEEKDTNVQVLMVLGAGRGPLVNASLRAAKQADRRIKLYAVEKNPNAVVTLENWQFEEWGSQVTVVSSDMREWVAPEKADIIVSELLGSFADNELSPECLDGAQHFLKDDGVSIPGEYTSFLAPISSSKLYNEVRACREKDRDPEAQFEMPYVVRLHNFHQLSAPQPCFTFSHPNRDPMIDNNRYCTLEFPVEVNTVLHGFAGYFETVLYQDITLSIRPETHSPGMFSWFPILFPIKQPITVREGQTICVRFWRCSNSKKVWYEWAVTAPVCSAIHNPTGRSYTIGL

Legend:
[1] = target: endogenous MBD2 (human (endogenous in HUDEP-2)) (UniProt Q9UBB5); experiment: co-IP; reciprocal immunoprecipitation of endogenous MBD2, BCL11A and PRMT5 in parental HUDEP-2 cells, western blot
[2] = target: MBD2a-TAPtag (UniProt Q9UBB5); experiment: co-IP; Strep-Tactin immunoprecipitation of MBD2a-TAPtag or MBD2b-TAPtag from HUDEP-2 cells, western blot for BCL11A and PRMT5
[3] = target: BCL11A (human (endogenous in HUDEP-2)) (UniProt Q9H165); experiment: co-IP; reciprocal immunoprecipitation of endogenous MBD2, BCL11A and PRMT5 in parental HUDEP-2 cells, western blot

## BCL11A (from UniProt Q9H165 1-835)
[1]
  binding: binds
[2]
  binding: binds

## PRMT5 (from UniProt O14744 1-637) (enzyme)
[3]
  binding: binds
[1]
  binding: binds
[2]
  binding: binds
